Results from PMC11401034.
These are yes or no findings as the source states them, for the method shown. In cells and extracts the contact can be indirect. Some results given as binding are weak or reduced against the parent protein; the word gives no strength.

Biological target: HA::SQSTM1 (human) (UniProt Q13501)
Assay: co-IP; lysate of HEK-293T cells transiently expressing HA::SQSTM1 (0.1% NP-40, 1 mM EDTA, 120 mM NaCl, 50 mM Tris-HCl pH 7.5), anti-HA antibody and Dynabeads Protein G at 4C, Western blot

binding: binds
Substance: Argonaut 2 (AGO2) (from UniProt Q9UKV8 1-859)
